These are yes or no findings as the source states them, for the method shown. Some binding calls cover weakened binding; strength is not graded here. Values belong to the binder of their own block, whether it stands above or below them.
Key:
[1] = target: T1, CCK2R on AR42J cells (UniProt P30553 1-452, limits assumed); test: displacement of ^125I-BH-CCK8 from AR42J cells
T1 construct: whole, on cells
T1 sequence (looked up): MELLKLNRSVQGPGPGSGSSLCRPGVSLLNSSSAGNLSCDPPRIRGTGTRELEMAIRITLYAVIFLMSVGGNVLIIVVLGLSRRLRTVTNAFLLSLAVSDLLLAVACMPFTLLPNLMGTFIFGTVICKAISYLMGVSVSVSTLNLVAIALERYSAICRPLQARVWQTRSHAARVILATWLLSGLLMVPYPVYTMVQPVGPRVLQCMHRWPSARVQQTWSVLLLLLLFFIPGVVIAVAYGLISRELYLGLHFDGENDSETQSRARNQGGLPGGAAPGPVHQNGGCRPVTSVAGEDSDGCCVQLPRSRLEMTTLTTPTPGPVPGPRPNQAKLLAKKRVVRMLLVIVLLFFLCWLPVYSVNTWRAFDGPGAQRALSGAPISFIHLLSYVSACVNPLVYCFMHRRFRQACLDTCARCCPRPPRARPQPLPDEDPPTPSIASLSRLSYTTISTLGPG

Sequences of proteins named here, by UniProt entry; tags and fusion partners are left off. A change or cut given only in a name is not applied to a line headed by its entry. Residues count along the entry.
UniProt P07355, residues 2-339: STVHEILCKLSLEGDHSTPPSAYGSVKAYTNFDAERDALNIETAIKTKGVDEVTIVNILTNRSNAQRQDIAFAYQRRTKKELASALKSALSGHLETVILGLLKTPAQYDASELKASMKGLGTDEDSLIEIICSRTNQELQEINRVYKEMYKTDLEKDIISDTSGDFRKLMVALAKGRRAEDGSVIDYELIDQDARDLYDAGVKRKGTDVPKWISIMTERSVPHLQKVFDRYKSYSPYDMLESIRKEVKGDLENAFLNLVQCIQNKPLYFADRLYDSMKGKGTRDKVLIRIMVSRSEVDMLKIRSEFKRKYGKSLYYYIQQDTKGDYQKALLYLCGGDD
UniProt P07356, residues 2-339: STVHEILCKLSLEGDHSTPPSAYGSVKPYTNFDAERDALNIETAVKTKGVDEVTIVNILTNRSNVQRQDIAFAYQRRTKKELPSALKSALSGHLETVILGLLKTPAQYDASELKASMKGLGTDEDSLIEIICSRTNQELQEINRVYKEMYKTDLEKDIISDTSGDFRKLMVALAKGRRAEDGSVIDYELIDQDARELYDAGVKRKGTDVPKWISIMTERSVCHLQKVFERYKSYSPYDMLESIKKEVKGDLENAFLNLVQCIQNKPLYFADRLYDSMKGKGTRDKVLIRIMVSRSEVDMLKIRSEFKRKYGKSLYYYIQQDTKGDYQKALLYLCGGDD
UniProt P06307: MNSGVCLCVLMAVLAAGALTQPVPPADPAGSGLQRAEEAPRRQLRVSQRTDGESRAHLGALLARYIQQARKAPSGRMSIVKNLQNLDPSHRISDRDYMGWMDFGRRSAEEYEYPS

[2] = target: Annexin II endogenous to human HCT-116 colon cancer cells and human colonic tissue samples (human) (UniProt P07355); test: pull-down with progastrin-antibody, Western blot; immunofluorescence co-localization in HCT-116 cells (FIG. 4C)
[3] = target: Annexin II in colonic crypts of transgenic (Fabp-PG) mice (mouse) (UniProt P07356); test: immunofluorescence co-localization in tissue (FIG. 4C panel iii)
[4] = target: Annexin II endogenous to human HCT-116 colon cancer cells and human colonic tissue samples (human) (UniProt P07355); test: immunofluorescence co-localization in patient adenoma and adenocarcinoma samples
[5] = target: Annexin II endogenous to human HCT-116 colon cancer cells and human colonic tissue samples (human) (UniProt P07355); test: pull-down and co-localization in HCT-116 cells (FIG. 4C)

binding [1]: binds
Binder: QGPWLEEEEEAYGWMDF (peptide, UniProt P01350 76-92, looked up, C-terminally amidated) [G17 (amidated gastrin, 17 amino acids)]

binding [2]: binds
binding [3]: binds
binding [4]: binds
binding [5]: binds
B1: progastrin (PG) expressed endogenously: autocrine PG of HCT-116 cells, PG of human adenomas/adenocarcinomas, human PG transgene in Fabp-PG mice (ligand)
chain: SWKPRSQQPDAPLGTGANRDLELPWLEQQGPASHHRRQLGPQGPPHLVADPSKKQGPWLEEEEEAYGWMDFGRRSAEDEN

binding [1]: binds
Binder: DYMGWMDF (peptide, UniProt P06307 96-103, looked up, amidated peptide; the tracer form carries a ^125I-Bolton Hunter label) [cholecystokinin (CCK-8)]
